Test results from the supplement of paper PMC10849652.
Some of the results follow.

Chains of the proteins cited; added tags and fusions are not shown. Lines headed by an entry give the natural chain unless they say otherwise; changes in a name come on top.
UniProt P63027, whole entry, looked up: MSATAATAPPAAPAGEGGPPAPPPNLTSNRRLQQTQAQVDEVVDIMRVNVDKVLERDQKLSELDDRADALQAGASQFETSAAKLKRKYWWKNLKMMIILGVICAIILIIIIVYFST
UniProt Q9BZX2: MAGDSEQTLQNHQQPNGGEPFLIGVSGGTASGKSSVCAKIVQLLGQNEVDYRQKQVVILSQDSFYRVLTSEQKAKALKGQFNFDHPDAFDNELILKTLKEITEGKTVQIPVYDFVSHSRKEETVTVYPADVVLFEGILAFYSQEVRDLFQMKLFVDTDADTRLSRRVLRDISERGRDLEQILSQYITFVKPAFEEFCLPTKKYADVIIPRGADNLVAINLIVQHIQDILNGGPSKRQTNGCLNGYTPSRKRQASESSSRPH
UniProt Q9P0L0: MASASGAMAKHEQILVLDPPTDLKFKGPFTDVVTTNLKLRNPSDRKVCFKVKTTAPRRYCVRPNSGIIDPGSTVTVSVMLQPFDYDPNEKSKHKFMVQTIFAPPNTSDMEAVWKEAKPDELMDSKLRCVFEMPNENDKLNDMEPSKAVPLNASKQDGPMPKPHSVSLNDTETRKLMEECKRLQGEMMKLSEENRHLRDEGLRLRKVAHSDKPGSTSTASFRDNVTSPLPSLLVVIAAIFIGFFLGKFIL
UniProt P10746: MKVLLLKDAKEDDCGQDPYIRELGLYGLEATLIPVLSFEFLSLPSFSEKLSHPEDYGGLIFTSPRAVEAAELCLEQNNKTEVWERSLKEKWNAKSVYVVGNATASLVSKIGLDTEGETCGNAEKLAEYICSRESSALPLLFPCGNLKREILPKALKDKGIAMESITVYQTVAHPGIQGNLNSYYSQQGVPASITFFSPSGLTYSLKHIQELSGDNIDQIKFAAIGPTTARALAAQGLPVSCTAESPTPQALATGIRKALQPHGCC
UniProt Q9Y5T5, whole entry, looked up: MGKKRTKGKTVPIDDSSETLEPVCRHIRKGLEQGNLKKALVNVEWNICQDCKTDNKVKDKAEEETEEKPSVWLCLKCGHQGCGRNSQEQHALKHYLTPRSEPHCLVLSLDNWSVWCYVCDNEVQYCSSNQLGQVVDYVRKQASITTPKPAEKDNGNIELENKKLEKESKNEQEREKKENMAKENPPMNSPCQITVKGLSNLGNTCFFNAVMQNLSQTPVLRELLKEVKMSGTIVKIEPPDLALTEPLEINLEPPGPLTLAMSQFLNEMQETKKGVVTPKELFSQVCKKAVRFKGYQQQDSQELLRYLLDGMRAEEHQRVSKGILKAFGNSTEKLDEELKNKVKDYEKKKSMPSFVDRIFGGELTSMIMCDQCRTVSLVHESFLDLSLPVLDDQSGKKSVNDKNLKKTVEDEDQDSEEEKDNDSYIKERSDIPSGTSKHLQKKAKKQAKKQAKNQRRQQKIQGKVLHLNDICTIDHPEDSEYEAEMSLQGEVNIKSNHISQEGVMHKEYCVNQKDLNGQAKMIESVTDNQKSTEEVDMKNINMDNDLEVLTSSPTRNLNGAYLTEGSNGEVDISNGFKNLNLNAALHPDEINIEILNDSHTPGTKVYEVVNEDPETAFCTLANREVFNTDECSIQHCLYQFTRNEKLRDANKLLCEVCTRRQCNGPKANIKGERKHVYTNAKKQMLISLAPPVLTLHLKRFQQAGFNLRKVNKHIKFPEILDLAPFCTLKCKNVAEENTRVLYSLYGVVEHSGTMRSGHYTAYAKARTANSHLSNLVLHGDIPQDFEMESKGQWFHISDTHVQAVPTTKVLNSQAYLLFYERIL
UniProt Q9HAU5: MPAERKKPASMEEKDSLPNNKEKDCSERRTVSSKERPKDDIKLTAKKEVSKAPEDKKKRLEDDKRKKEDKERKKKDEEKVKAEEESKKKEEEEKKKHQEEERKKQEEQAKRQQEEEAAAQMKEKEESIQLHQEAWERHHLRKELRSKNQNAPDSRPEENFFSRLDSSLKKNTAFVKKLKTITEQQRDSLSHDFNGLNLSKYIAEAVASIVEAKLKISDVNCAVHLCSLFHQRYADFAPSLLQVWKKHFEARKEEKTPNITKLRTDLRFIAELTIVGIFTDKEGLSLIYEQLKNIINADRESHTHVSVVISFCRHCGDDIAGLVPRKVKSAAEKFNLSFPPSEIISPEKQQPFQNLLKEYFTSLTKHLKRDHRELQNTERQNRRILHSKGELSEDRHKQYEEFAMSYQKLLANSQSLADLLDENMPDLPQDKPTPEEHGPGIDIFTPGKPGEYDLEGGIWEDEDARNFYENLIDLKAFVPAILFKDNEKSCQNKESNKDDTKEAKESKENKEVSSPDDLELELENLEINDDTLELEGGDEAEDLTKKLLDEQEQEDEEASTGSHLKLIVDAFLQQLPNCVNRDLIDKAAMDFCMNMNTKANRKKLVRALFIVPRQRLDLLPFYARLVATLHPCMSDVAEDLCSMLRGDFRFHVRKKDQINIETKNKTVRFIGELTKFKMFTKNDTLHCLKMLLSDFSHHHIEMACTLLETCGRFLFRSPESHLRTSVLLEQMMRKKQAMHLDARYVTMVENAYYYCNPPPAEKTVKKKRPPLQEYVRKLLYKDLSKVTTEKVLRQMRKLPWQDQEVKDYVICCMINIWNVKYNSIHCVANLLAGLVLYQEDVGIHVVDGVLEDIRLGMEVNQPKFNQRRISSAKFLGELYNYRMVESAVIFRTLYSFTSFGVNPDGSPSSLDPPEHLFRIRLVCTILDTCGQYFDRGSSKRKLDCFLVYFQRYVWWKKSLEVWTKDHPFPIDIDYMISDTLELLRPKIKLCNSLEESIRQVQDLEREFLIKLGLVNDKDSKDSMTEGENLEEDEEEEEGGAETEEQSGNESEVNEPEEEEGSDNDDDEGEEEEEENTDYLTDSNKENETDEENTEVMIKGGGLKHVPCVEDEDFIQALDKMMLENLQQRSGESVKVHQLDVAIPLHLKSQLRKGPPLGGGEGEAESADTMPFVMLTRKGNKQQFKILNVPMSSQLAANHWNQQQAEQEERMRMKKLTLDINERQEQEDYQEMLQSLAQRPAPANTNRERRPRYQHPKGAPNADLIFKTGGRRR
UniProt Q9NZ43: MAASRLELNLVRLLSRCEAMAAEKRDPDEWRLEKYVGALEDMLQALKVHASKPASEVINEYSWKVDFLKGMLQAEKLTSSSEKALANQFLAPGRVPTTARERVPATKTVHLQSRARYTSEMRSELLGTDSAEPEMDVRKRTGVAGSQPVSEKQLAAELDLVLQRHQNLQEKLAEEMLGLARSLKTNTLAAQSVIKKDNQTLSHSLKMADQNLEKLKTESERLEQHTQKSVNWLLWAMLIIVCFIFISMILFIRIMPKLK
UniProt Q96S82: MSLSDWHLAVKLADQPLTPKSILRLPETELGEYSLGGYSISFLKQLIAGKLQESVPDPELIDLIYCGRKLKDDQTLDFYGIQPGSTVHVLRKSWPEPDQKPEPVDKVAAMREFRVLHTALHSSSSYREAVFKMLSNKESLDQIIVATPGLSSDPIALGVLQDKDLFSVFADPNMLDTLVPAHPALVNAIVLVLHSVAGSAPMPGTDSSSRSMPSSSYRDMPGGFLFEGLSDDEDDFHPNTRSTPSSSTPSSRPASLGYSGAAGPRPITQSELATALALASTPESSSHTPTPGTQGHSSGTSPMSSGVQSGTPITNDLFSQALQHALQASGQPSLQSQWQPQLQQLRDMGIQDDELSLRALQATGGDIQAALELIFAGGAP
UniProt P06132: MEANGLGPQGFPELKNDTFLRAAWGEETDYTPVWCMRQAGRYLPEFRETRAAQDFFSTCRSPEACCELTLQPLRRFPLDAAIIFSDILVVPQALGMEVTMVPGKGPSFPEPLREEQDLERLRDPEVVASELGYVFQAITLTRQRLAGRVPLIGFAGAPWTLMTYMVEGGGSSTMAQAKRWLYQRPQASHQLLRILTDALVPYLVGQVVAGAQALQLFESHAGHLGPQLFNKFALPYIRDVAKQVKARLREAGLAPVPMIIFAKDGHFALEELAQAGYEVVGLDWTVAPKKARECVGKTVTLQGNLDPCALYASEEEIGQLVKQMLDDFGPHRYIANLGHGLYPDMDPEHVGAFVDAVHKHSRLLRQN
UniProt P47985: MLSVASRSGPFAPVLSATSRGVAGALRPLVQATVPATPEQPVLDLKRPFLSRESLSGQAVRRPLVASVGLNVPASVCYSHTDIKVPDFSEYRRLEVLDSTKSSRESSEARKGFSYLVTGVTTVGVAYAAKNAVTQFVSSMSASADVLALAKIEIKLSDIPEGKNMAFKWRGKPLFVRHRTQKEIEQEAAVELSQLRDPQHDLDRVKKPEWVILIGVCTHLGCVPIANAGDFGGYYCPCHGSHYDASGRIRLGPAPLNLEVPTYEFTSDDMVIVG
UniProt O94763, whole entry, looked up: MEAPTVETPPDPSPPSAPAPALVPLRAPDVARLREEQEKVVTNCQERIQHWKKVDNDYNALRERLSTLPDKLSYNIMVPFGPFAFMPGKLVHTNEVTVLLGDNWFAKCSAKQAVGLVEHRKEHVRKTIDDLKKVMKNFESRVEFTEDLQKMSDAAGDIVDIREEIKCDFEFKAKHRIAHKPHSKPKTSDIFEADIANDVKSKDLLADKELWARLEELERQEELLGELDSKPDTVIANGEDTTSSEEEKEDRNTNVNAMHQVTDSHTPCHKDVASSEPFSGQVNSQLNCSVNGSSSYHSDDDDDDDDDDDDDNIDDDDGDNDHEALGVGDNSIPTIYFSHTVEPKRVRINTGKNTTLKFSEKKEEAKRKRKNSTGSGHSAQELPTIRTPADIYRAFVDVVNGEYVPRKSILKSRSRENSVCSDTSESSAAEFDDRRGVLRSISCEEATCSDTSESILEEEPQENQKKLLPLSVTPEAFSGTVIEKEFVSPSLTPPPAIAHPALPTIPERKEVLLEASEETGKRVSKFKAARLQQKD
UniProt Q14694, whole entry, looked up: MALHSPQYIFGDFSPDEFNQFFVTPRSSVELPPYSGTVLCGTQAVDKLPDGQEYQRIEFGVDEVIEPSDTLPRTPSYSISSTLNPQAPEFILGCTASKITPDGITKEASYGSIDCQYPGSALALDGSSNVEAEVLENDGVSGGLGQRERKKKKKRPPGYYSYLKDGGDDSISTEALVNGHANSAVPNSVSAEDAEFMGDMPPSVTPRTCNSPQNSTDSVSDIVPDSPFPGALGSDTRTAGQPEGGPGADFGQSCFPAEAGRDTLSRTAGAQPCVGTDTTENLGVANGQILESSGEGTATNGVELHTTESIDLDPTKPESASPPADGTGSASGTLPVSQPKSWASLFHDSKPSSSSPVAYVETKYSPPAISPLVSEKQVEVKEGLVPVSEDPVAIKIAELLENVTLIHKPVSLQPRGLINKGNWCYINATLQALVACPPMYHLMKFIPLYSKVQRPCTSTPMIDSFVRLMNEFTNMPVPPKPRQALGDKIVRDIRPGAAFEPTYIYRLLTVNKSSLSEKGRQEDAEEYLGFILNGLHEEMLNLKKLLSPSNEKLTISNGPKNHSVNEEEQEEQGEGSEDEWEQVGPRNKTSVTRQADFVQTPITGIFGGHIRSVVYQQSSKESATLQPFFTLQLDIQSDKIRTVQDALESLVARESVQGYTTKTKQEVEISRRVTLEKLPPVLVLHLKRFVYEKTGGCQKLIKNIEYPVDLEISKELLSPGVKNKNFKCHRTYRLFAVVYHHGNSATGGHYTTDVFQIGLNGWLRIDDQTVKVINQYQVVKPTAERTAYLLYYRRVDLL
UniProt Q70CQ3: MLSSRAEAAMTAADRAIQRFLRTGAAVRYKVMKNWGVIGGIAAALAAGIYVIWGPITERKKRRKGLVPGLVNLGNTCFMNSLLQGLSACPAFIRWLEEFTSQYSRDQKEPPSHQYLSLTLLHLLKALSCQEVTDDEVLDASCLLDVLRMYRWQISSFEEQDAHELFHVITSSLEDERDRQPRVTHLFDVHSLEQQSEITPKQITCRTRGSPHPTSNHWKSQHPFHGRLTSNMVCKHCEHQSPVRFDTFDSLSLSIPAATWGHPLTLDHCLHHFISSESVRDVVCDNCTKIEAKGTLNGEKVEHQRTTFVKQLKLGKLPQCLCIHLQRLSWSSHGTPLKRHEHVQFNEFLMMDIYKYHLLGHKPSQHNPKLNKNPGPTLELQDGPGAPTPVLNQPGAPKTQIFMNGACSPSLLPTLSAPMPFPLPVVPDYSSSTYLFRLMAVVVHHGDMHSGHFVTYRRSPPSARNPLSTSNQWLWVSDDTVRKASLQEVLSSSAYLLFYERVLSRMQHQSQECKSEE
UniProt O14562: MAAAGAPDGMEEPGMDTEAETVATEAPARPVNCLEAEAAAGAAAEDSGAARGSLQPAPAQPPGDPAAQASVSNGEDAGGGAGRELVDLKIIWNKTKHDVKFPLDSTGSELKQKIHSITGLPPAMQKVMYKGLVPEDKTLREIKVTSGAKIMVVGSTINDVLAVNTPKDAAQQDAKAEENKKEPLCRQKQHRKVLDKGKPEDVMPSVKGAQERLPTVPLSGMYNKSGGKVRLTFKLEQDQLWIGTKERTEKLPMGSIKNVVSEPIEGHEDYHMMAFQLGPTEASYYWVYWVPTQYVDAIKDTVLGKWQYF

compound: CC(=O)c1cnc2ccc(-c3cc(Cl)c(O)c(Cl)c3)nc2c1N[C@H]1CC[C@H](CN(C)C)CC1; experiment: log2 fold change, soluble protein after heating vs DMSO (PISA); higher = thermal stabilisation; K562 cells, 10 uM, 30 min; active = over 0.2 and 3.5 SD of the protein, either way, in both replicates (recomputed)
Method in brief: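 Thermal stability values are relative to control samples and come from duplicates. They are expressed as log2 fold changes. For measurement, K562 cells (2×10^6 cells/mL) received 10 μM compound for 30 min, and aliquots were heated for 3 min over 48°C-58°C, pooled, and extracted at 4°C in PBS with 0.5% NP-40. Soluble protein, the supernatant after 21,000xg for 90 min, was quantified by TMTpro 16plex LC-MS/MS with equalised channel sums.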

Target | log2 fold change
VAMP2 (UniProt P63027) | inactive: 0.064
UCK2 (UniProt Q9BZX2) | inactive: -0.064
VAPA (UniProt Q9P0L0) | inactive: 0
UGGT2 (UniProt Q9NYU1) | inactive: -0.033
UROS (UniProt P10746) | inactive: -0.011
USP16 (UniProt Q9Y5T5) | inactive: -0.076
UPF2 (UniProt Q9HAU5) | inactive: 0.066
USE1 (UniProt Q9NZ43) | inactive: -0.043
UBL7 (UniProt Q96S82) | inactive: -0.006
UROD (UniProt P06132) | inactive: 0.022
UQCRFS1 (UniProt P47985) | inactive: 0.056
URI1 (UniProt O94763) | inactive: -0.015
USP10 isoform 2 (UniProt Q14694) | inactive: -0.002
USP30 (UniProt Q70CQ3) | inactive: -0.051
UBFD1 (UniProt O14562) | inactive: -0.013

4 neighbouring records from above, quoted:
Target | log2 fold change
UBL7 (UniProt Q96S82) | inactive: -0.006
UROD (UniProt P06132) | inactive: 0.022
UQCRFS1 (UniProt P47985) | inactive: 0.056
URI1 (UniProt O94763) | inactive: -0.015
